Consider 1 substance from publication PMC2579577.

The assay concerns the target T1, myc-tagged 14-3-3η (UniProt Q04917).
T1 sequence: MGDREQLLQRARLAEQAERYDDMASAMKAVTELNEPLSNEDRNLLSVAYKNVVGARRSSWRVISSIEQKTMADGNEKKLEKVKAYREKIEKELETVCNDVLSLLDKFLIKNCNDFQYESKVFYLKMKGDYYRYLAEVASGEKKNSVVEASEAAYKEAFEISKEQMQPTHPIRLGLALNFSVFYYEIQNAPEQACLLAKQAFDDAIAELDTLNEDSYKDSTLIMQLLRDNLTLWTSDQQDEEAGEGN
Put plainly: co-IP; COS cells transfected; lysates immunoprecipitated with 9E10 anti-myc antibody, 12 h at 4°C; Western blot with antibodies against Flag, Myc or Kif3A. In general terms: A western blot detects proteins with antibodies after separation by electrophoresis.

Results are given in words; binding and its absence hold for the method and conditions named. In cells and extracts the contact can be indirect. A result given as binding can be weak or reduced; the word gives no strength. Sequences can lack the tags named with a protein.

On to “endogenous Kif3A (COS cells) (African green monkey (endogenous in COS))”, for which the binding result was “binds”.
